According to the supplement of paper PMC11006884:
Shown are results outside the selection of targets with a hit, which stands elsewhere. Single values of this set are uncertain. This is a selection; strong and weak results do not stand in their true shares.

Sequences of proteins named here, by UniProt entry; tags and fusion partners are left off. A change or cut given only in a name is not applied to a line headed by its entry.
UniProt Q7KZF4: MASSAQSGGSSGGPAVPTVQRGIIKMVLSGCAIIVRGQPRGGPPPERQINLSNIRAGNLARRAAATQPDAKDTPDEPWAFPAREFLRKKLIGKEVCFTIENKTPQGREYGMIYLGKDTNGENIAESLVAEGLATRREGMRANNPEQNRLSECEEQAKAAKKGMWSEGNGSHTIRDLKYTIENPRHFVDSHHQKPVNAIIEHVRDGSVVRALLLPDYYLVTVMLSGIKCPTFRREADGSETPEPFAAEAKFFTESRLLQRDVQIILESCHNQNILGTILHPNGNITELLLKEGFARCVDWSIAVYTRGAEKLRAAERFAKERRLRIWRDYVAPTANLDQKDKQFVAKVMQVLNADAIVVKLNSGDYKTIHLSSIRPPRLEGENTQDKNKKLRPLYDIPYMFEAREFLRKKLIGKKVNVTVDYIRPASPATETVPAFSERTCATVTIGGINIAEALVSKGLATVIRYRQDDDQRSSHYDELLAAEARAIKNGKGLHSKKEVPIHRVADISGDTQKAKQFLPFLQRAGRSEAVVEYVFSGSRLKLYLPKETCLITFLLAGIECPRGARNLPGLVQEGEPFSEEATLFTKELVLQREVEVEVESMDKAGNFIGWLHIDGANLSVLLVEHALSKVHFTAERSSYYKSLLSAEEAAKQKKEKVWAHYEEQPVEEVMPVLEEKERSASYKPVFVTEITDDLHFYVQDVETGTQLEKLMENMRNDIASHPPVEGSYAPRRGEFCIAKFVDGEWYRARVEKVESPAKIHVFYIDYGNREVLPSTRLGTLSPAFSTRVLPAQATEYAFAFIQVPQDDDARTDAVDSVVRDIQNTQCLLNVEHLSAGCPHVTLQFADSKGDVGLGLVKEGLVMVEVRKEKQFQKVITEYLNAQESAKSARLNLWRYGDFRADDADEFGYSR
UniProt Q86XL3: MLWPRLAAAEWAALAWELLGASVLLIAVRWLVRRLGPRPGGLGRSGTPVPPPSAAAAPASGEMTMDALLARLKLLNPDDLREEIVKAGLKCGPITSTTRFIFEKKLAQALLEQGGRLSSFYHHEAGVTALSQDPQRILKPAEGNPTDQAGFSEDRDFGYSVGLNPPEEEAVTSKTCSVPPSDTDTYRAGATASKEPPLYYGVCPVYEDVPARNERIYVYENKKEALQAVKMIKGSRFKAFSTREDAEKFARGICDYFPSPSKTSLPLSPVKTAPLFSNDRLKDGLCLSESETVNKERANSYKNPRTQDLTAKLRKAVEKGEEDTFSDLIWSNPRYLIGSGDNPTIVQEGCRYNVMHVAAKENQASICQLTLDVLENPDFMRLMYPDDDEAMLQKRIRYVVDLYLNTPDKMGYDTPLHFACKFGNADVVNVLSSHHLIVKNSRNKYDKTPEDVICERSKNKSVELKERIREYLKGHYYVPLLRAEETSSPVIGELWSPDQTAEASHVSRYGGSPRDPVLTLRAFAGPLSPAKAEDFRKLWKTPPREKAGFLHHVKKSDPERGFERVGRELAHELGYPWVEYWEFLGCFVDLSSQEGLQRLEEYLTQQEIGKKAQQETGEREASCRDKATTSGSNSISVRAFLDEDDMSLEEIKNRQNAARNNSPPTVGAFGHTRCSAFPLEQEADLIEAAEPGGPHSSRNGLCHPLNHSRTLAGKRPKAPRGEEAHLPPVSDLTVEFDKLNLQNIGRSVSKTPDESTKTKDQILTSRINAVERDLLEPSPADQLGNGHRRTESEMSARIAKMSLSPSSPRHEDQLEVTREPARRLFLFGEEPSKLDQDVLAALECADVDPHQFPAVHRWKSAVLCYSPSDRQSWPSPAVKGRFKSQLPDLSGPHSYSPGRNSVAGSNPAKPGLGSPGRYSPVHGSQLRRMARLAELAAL
UniProt Q8IY37: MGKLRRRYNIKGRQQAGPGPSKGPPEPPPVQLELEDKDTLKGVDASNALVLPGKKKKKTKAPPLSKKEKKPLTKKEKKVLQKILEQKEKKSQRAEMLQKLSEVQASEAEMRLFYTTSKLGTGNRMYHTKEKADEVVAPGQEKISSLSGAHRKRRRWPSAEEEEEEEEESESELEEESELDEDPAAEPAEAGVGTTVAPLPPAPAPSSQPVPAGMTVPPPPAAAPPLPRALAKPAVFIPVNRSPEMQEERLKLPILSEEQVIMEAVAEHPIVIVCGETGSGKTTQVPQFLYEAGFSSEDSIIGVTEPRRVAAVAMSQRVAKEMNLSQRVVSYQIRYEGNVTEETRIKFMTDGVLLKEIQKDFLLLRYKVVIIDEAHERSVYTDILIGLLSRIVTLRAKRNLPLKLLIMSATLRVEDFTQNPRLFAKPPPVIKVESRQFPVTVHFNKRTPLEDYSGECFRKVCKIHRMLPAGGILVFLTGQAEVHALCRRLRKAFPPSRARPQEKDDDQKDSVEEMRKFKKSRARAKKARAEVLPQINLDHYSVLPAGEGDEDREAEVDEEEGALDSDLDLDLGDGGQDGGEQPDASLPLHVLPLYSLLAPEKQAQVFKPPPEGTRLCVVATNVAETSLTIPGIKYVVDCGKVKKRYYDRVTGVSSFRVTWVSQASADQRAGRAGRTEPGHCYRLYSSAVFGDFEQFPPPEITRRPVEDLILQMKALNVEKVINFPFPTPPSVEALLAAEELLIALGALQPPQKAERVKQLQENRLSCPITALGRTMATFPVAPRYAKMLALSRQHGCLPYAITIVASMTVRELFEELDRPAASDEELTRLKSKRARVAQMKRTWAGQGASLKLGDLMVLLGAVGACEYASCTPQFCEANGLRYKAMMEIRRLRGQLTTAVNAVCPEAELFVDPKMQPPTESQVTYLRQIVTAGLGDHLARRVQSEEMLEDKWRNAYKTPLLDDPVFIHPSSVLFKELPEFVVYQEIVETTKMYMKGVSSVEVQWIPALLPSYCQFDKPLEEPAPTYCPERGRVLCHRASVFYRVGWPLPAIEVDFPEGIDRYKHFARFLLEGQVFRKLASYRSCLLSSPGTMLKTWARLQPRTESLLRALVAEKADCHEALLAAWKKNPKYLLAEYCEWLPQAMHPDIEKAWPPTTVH
UniProt Q86WB0: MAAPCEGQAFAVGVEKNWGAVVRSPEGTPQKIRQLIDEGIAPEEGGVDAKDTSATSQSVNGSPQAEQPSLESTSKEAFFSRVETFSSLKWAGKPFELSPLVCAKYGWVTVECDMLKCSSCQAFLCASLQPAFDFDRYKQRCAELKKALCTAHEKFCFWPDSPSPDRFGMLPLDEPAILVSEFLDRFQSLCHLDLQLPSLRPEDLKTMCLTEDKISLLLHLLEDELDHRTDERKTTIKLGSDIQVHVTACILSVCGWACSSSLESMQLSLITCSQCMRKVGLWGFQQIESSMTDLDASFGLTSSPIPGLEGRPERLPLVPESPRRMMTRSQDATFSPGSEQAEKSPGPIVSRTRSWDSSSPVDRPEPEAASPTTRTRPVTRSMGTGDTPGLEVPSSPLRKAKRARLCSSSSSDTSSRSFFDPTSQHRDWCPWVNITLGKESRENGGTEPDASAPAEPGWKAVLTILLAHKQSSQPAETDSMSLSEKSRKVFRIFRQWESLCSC
UniProt Q7Z4V5: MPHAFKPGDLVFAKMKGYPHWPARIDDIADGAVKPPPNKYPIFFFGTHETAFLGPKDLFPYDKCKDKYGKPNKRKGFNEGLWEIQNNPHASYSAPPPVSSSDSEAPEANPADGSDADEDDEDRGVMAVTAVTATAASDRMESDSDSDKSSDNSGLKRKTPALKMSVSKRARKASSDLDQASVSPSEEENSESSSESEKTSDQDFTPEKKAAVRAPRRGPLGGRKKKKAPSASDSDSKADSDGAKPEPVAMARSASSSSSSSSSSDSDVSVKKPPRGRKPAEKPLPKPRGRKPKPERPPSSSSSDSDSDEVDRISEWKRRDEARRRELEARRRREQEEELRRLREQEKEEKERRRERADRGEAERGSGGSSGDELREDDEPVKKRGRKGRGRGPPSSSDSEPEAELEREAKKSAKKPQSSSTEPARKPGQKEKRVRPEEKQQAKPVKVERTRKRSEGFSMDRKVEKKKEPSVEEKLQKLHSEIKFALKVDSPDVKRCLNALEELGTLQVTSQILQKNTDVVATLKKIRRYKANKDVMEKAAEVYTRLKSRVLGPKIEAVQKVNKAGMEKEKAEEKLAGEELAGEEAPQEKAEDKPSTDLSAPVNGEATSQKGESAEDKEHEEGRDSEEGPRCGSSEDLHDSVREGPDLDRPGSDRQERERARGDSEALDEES
UniProt Q8IU81: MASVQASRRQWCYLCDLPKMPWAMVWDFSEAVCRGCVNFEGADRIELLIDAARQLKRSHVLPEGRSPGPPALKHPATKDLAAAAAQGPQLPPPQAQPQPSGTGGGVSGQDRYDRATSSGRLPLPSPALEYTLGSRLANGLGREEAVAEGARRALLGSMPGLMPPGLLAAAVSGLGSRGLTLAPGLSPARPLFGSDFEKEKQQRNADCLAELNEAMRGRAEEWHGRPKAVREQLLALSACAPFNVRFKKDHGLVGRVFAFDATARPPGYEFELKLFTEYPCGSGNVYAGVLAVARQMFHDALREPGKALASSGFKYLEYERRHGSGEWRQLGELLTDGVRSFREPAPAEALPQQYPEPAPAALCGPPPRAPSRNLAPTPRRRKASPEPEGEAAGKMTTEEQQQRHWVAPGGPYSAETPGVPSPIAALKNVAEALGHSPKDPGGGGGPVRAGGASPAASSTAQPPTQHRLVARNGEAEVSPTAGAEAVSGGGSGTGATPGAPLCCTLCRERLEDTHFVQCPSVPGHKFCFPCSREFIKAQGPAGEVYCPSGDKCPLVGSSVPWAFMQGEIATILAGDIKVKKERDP
UniProt Q7Z4S6: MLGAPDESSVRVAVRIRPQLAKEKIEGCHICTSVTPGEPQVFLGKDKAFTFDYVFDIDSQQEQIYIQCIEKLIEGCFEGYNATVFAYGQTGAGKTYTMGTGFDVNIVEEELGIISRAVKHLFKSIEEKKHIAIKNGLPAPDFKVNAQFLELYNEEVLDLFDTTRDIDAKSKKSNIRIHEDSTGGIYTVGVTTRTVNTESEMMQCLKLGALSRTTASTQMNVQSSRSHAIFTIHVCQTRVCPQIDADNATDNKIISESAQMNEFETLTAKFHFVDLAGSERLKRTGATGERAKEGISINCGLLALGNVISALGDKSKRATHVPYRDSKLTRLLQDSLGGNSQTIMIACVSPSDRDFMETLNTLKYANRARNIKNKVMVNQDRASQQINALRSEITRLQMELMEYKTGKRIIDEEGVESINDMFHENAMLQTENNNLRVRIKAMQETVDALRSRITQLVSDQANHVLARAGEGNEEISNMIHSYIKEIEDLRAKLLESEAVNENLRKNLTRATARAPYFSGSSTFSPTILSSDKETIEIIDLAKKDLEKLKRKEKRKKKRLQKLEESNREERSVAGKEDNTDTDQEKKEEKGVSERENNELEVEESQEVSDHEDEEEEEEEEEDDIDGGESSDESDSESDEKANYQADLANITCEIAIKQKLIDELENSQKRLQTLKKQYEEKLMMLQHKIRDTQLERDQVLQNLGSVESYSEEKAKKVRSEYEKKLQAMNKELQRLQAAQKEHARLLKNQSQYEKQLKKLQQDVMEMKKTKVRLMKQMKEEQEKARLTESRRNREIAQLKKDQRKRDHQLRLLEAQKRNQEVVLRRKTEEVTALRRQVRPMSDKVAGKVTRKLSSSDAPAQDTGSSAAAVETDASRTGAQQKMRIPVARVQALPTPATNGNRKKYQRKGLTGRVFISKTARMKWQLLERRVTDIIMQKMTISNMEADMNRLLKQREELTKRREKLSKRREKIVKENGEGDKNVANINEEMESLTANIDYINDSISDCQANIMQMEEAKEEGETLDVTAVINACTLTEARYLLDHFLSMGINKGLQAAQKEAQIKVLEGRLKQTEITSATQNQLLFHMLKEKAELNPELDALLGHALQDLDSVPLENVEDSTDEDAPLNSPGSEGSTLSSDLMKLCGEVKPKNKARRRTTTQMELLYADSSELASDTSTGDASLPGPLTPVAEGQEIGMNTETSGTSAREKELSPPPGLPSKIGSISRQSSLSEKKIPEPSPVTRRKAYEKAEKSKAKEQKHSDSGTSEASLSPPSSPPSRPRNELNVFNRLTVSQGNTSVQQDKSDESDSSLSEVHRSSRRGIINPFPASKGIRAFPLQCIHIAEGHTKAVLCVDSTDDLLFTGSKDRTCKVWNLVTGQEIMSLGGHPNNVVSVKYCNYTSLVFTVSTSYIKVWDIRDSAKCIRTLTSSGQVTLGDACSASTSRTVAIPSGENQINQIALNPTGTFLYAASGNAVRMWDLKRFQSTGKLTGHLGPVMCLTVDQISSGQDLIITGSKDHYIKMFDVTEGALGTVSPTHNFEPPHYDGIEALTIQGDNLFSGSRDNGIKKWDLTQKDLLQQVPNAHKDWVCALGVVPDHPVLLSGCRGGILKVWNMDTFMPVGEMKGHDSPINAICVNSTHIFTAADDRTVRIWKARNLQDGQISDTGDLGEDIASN

compound: COC(=O)/C=C/c1ccccc1 [methyl cinnamate]; assay: log2 ratio of iodoacetamide-alkyne labeling of the cysteine site, DMSO over compound (competition); higher = stronger covalent engagement of the cysteine by the compound, active = 1 or more; conditions: 500 µM; treatment time 1 h; system: HEK293T cell lysate
Summary of the method: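 Reporter intensities give each cysteine's log2 competition ratio as the mean of control channels over the mean of compound channels. The samples were HEK293T lysate (2 mg/mL) given vehicle or electrophile (500 µM, 1 h, ambient temperature), then iodoacetamide alkyne (1 h), followed by click coupling to sCIP-TMT reagents, pooling, trypsin digestion overnight at 37 °C, streptavidin enrichment, acid elution, Orbitrap Eclipse LC-MS/MS with FAIMS and FragPipe quantification. Duplicate channels and three replicates were run, and cysteines quantified in only one replicate were discarded.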

Target	log2 ratio of iodoacetamide-alkyne labeling
PNPLA6 C409 (UniProt Q8IY17)	inactive: 0.188
SND1 C560 (UniProt Q7KZF4)	inactive: 0.229
DENND4A C35 (UniProt Q7Z401)	inactive: 0.168
PBRM1 C138 (UniProt Q86U86)	inactive: 0.0277
UniProt Q86YS7_C831	inactive: 0.061
SND1 C152 (UniProt Q7KZF4)	inactive: 0.327
PEG10 C78 (UniProt Q86TG7)	inactive: 0.0912
ANKLE2 C367 (UniProt Q86XL3)	inactive: 0.0646
SND1 C96 (UniProt Q7KZF4)	inactive: 0.0313
PHF6 C242 (UniProt Q8IWS0)	inactive: -0.202
IRF2BP2 C37 (UniProt Q7Z5L9)	inactive: -0.0956
DHX37 C1026 (UniProt Q8IY37)	inactive: 0.262
UniProt Q7Z5K2_C160	inactive: 0.269
ZC3HC1 C5 (UniProt Q86WB0)	inactive: 0.0444
CKAP2L C124 (UniProt Q8IYA6)	inactive: 0.371
EXOC8 C172 (UniProt Q8IYI6)	inactive: 0.102
PHF6 C45 (UniProt Q8IWS0)	inactive: -0.0475
LARP4 C599 (UniProt Q71RC2)	inactive: 0.319
ZC3HC1 C500 (UniProt Q86WB0)	inactive: 0.0565

Target	log2 ratio of iodoacetamide-alkyne labeling
ZC3HC1 C429 (UniProt Q86WB0)	inactive: 0.431
UniProt Q86Y56_C349	inactive: 0.134
DCP2 C207 (UniProt Q8IU60)	inactive: -0.0558
UniProt Q7LBC6_C1451	inactive: 0.297
UniProt Q7Z4V5_C631	inactive: 0.0624
DHX30 C286 (UniProt Q7L2E3)	inactive: -0.0543
POGZ C1267 (UniProt Q7Z3K3)	inactive: 0.197
FAM122B C155 (UniProt Q7Z309)	inactive: 0.348
IRF2BP1 C239 (UniProt Q8IU81)	inactive: 0.102
KIF21A C299 (UniProt Q7Z4S6)	inactive: 0.0727
USP48 C145 (UniProt Q86UV5)	inactive: -0.348
IRF2BP1 C207 (UniProt Q8IU81)	inactive: 0.0933
UniProt Q7Z695_C624	inactive: -0.0902
UniProt Q8IY26_C55	inactive: 0.442
POGZ C547 (UniProt Q7Z3K3)	inactive: -0.1
SND1 C228 (UniProt Q7KZF4)	inactive: 0.0662
ANKLE2 C844 (UniProt Q86XL3)	inactive: -0.00862
ANKLE2 C350 (UniProt Q86XL3)	inactive: -0.0885

Reprinted at random: two entries already listed.
Target	log2 ratio of iodoacetamide-alkyne labeling
IRF2BP1 C207 (UniProt Q8IU81)	inactive: 0.0933
UniProt Q8IY26_C55	inactive: 0.442
